Compound in the test: CC1Cc2ccccc2N1C(=O)C1CCCN(C1)C(=O)CCl (mixture of isomers) [TRIM25 ligand 11 (diastereomer mixture)]
Put plainly: probe-labelled cysteine peptide fold change vs DMSO (competition) (log2 fold change); higher = less target engagement (more negative = stronger competition). The following applies: THP-1, incubation time: 4 h.

By UniProt entry, the sequences of proteins in these tests, tags left out. Where a name states a change or a piece, a line headed by the entry shows the natural chain unless it says otherwise.
UniProt P40926: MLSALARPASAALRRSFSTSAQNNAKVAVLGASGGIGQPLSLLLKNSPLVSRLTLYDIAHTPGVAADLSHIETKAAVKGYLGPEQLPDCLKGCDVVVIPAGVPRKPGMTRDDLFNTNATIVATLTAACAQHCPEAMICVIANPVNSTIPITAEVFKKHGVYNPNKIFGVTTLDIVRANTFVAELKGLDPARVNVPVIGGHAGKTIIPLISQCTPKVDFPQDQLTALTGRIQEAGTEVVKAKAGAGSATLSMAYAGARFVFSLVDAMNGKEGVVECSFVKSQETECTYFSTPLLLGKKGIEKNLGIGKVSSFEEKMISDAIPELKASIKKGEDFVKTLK
UniProt O60244: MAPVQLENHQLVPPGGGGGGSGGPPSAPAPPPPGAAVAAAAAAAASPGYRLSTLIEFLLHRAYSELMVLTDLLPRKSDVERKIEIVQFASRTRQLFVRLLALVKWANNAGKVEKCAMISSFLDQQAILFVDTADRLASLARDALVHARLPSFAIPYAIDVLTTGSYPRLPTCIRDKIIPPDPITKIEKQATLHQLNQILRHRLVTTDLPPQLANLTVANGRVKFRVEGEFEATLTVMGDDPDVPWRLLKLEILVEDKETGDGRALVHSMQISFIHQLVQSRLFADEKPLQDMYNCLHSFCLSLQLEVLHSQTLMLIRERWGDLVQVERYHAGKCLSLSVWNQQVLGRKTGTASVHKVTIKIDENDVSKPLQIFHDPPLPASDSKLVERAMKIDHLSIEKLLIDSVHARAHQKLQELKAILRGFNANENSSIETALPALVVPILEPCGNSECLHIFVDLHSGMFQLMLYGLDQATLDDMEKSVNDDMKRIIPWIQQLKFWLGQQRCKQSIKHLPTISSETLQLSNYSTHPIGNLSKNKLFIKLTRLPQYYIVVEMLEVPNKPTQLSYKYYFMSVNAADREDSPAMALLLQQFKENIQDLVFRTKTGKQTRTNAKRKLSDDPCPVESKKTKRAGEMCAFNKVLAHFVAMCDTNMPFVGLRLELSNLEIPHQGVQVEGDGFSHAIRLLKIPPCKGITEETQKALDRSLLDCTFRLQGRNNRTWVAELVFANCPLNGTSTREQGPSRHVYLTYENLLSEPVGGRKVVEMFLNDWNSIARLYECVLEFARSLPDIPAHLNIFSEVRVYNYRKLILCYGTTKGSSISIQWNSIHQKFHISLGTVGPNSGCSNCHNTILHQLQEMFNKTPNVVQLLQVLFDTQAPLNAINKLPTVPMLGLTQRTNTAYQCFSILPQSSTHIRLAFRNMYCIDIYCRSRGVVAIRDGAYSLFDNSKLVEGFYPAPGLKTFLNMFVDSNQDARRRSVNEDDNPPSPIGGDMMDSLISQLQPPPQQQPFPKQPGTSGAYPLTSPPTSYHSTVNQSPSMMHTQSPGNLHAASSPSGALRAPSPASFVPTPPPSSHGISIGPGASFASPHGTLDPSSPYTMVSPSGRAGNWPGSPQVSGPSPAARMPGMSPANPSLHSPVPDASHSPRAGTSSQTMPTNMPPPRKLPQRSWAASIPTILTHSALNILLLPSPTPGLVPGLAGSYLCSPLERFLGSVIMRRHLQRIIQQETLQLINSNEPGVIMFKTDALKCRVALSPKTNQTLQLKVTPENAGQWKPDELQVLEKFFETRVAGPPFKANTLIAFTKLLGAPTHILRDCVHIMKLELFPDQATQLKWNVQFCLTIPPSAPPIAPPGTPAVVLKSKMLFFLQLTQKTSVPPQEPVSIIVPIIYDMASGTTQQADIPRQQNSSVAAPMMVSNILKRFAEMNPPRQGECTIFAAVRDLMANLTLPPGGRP
UniProt Q8N6R0: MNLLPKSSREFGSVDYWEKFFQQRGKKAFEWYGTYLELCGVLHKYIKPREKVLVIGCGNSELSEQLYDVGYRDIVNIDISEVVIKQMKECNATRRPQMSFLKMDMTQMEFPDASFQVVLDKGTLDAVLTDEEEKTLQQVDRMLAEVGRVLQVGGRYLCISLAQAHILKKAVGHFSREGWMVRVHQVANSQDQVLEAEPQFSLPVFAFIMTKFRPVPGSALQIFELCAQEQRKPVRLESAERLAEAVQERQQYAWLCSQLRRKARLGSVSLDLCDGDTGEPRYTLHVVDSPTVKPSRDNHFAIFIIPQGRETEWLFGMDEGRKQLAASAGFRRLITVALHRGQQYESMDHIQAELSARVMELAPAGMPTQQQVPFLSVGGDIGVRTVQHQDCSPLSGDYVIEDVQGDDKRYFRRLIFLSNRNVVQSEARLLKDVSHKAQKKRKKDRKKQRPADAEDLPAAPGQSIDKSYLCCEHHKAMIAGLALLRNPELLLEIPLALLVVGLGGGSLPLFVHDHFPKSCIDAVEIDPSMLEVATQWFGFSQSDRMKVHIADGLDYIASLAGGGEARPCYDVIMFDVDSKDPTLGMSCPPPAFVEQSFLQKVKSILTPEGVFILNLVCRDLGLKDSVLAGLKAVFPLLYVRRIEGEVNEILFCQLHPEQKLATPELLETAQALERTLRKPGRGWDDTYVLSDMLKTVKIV
UniProt Q8IWA4: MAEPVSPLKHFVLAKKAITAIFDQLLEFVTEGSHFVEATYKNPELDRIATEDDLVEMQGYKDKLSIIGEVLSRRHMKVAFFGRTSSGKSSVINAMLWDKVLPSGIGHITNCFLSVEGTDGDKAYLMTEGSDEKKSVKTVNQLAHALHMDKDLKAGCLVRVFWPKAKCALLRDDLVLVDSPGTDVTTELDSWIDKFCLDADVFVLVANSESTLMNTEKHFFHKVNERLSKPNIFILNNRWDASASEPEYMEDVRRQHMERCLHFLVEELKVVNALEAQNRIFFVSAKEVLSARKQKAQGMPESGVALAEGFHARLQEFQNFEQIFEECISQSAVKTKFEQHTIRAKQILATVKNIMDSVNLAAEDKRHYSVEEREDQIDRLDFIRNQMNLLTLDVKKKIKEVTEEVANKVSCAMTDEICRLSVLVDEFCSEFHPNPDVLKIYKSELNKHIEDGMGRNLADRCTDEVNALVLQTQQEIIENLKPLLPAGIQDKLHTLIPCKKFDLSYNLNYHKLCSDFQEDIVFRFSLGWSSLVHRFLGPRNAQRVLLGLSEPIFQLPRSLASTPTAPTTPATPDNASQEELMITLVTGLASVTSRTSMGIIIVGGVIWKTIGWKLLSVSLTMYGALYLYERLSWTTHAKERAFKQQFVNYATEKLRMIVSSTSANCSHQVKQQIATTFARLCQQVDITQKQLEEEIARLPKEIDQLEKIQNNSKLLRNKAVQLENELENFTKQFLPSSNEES
UniProt Q8NE86: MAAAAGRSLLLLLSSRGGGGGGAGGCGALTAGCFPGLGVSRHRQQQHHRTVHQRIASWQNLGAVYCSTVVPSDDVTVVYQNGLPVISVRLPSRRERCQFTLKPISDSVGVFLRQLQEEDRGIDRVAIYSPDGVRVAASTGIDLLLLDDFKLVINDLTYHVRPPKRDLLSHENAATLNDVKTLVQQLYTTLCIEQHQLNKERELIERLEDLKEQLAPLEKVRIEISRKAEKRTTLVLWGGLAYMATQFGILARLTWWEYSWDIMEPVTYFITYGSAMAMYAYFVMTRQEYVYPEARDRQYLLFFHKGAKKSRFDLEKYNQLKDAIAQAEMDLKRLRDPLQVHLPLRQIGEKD
UniProt P33992: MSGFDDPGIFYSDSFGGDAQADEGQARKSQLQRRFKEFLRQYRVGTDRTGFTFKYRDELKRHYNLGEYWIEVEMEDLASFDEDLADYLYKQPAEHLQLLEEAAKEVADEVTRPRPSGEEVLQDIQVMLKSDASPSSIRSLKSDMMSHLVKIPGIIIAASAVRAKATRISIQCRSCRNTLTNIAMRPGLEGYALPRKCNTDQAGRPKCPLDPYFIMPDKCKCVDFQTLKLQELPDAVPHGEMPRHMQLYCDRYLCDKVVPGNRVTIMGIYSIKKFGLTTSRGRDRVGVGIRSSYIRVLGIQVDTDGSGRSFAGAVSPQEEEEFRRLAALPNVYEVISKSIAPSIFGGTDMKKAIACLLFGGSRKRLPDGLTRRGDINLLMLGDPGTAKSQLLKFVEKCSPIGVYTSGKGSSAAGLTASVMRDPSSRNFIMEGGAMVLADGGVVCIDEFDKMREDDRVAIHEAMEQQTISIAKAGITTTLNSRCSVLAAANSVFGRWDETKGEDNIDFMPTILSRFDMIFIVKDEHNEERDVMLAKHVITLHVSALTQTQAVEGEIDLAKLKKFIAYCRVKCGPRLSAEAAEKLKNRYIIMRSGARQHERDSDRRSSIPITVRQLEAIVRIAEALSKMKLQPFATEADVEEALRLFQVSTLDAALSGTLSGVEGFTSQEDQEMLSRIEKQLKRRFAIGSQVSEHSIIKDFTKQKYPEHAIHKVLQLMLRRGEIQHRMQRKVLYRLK
UniProt P25205: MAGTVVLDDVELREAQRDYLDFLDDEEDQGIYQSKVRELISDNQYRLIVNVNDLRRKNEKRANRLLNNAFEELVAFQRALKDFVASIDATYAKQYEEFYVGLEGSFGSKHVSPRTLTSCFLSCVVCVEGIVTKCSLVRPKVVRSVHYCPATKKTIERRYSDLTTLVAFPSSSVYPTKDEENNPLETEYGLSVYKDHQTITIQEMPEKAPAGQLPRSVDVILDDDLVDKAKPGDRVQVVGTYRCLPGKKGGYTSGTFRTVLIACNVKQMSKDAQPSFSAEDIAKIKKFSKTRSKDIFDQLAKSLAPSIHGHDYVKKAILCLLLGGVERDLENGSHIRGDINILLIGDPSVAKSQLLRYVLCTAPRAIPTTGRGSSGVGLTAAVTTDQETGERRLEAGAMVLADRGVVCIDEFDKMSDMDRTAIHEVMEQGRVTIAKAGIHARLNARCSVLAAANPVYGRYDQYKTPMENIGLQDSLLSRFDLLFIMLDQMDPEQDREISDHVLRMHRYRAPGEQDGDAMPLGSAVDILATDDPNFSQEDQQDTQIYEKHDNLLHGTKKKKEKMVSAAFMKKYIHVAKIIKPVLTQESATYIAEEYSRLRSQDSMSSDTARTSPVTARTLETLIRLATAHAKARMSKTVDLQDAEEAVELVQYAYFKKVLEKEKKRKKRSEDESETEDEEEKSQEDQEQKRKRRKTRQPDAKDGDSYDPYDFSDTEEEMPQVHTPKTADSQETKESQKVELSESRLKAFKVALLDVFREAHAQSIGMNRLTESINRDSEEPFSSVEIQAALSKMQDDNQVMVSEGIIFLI
UniProt Q10469: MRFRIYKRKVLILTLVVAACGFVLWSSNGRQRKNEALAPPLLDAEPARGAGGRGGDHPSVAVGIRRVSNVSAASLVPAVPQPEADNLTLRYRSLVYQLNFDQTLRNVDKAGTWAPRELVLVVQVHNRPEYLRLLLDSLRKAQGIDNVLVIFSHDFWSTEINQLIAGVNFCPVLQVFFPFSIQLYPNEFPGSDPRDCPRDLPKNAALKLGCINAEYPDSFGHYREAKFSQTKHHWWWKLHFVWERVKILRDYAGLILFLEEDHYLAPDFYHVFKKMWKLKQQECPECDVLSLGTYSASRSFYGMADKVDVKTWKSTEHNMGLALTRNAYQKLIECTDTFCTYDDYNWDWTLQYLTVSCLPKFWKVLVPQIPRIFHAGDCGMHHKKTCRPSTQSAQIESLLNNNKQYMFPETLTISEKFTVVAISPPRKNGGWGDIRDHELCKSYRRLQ
UniProt Q7L590: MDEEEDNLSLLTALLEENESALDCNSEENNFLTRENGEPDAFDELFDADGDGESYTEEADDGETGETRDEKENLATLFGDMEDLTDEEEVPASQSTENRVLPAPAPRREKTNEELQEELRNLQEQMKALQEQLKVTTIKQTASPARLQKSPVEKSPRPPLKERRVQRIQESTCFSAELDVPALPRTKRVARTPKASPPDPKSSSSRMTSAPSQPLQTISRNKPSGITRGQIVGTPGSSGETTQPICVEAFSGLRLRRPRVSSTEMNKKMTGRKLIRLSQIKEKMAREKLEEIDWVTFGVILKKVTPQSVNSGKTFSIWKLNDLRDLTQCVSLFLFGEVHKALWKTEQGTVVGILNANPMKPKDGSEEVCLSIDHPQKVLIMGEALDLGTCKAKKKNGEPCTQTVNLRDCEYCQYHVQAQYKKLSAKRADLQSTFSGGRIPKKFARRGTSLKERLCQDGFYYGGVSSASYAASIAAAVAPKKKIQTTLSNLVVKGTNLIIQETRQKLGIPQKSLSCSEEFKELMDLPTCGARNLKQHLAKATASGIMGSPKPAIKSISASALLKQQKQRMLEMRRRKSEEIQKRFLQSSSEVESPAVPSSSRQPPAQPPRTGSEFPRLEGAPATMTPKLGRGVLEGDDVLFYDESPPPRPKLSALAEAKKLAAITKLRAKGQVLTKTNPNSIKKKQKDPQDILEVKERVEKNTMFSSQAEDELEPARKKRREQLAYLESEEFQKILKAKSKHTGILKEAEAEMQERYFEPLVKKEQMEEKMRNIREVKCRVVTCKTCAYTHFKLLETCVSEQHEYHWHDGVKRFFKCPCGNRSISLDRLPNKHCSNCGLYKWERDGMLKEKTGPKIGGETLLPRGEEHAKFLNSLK

Some of the results follow.
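Also: competitive chemoproteomic profiling in live THP-1 cells with an iodoacetamide desthiobiotin (IA-DTB) probe, comparing probe-labelled peptide intensities in compound-treated cells against DMSO-treated controls.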

Regarding “MDH2_P40926_89_GYLGPEQLPDCLK (UniProt P40926)”, the “probe-labelled cysteine peptide fold change” value is, setting by setting: (10 µM) -0.00753; (50 µM) -0.0156.

As to “MFSD14A_Q96MC6_465_HCGSHSHPHNTQAPGEAK (UniProt Q96MC6)”, the “probe-labelled cysteine peptide fold change” value is, setting by setting: (10 µM) 0.0763; (50 µM) -0.38.

Turning to “MDN1_Q9NU22_1400_TTICQVFAALANQK (UniProt Q9NU22)”, the “probe-labelled cysteine peptide fold change” value runs as follows: (10 µM) 0.156; (50 µM) 0.0599.

In the case of “MESD_Q14696_180_CADVTLEGQVYPGK (UniProt Q14696)”, the “probe-labelled cysteine peptide fold change” value runs as follows: (10 µM) -0.0104; (50 µM) -0.0213.

As for “MED14_O60244_1433_QGECTIFAAVR (UniProt O60244)”, the “probe-labelled cysteine peptide fold change” value is 0.177 (10 µM) and 0.249 (50 µM).

Regarding “MED13L_Q71F56_1457_LGQHKPICK (UniProt Q71F56)”, the “probe-labelled cysteine peptide fold change” value (10 µM) was -0.182 and the “probe-labelled cysteine peptide fold change” value (50 µM) is -0.263.

“METTL13_Q8N6R0_617_SILTPEGVFILNLVCR (UniProt Q8N6R0)”: the “probe-labelled cysteine peptide fold change” value was -0.0881 (10 µM) and 0.206 (50 µM).

Consider “MFN1_Q8IWA4_513_LCSDFQEDIVFR (UniProt Q8IWA4)”, for which the “probe-labelled cysteine peptide fold change” value reads like this: (10 µM) 0.257; (50 µM) 0.355.

As to “MDC1_Q14676_128_DQELILFADLLCQYHR (UniProt Q14676)”, the “probe-labelled cysteine peptide fold change” value is -0.0277 (10 µM) and 0.28 (50 µM).

As for “MCU_Q8NE86_191_TLVQQLYTTLCIEQHQLNK (UniProt Q8NE86)”, the “probe-labelled cysteine peptide fold change” value runs as follows: (10 µM) -0.0422; (50 µM) -0.0422.

On to “METTL13_Q8N6R0_39_AFEWYGTYLELCGVLHK (UniProt Q8N6R0)”, for which the “probe-labelled cysteine peptide fold change” value (10 µM) was found to be 0.117 and the “probe-labelled cysteine peptide fold change” value (50 µM) is 0.173.

On to “METAP1_P53582_22_LQCPTCIK (UniProt P53582)”, for which the “probe-labelled cysteine peptide fold change” value runs as follows: (10 µM) 0.0363; (50 µM) 0.151.

In the case of “MCM5_P33992_355_AIACLLFGGSR (UniProt P33992)”, the “probe-labelled cysteine peptide fold change” value is -0.24 (10 µM) and 0.175 (50 µM).

As for “MED26_O95402_598_LNILPYVCLD (UniProt O95402)”, the “probe-labelled cysteine peptide fold change” value (10 µM) is 0.105 and the “probe-labelled cysteine peptide fold change” value (50 µM) was -0.0632.

Take “METAP1_P53582_174_EVLDVAAGMIKPGVTTEEIDHAVHLACIAR (UniProt P53582)”: the “probe-labelled cysteine peptide fold change” value was -0.148 (10 µM) and 0.0551 (50 µM).

On to “METTL2B_Q6P1Q9_241_CFAFVHDLCDEEK (UniProt Q6P1Q9)”, for which the “probe-labelled cysteine peptide fold change” value came out at 0.117 (10 µM) and 0.0885 (50 µM).

Take “MEFV_O15553_315+327_CHAQEGDPVDGTCVR (UniProt O15553)”: the “probe-labelled cysteine peptide fold change” value by setting is: (10 µM) 0.0356; (50 µM) -0.404.

In the case of “MED23_Q9ULK4_1109_FNEFPNPAAHALHVTCVELMALAVSGK (UniProt Q9ULK4)”, the “probe-labelled cysteine peptide fold change” value came out at 0.0161 (10 µM) and 0.0357 (50 µM).

Take “MCM3_P25205_360_YVLCTAPR (UniProt P25205)”: the “probe-labelled cysteine peptide fold change” value is -0.0719 (10 µM) and -0.0649 (50 µM).

Consider “METAP1_P53582_255_LVQTTYECLMQAIDAVK (UniProt P53582)”, for which the “probe-labelled cysteine peptide fold change” value (10 µM) stood at 0.0988 and the “probe-labelled cysteine peptide fold change” value (50 µM) was 0.265.

In the case of “MCM6_Q14566_393_GDINVCIVGDPSTAK (UniProt Q14566)”, the “probe-labelled cysteine peptide fold change” value by setting is: (10 µM) 0.0736; (50 µM) 0.0283.

As for “METAP1_P53582_255_KLVQTTYECLMQAIDAVK (UniProt P53582)”, the “probe-labelled cysteine peptide fold change” value (10 µM) is -0.229 and the “probe-labelled cysteine peptide fold change” value (50 µM) turned out to be 0.000754.

On to “MCM5_P33992_249_HMQLYCDR (UniProt P33992)”, for which the “probe-labelled cysteine peptide fold change” value by setting is: (10 µM) 0.00743; (50 µM) 0.057.

As for “MED15_Q96RN5_618_QQYLCQPLLDAVLANIR (UniProt Q96RN5)”, the “probe-labelled cysteine peptide fold change” value was -0.00606 (10 µM) and 0.36 (50 µM).

For “MED17_Q9NVC6_363_QCPEDHLYVLEHNLHLLIR (UniProt Q9NVC6)”, the “probe-labelled cysteine peptide fold change” value was -0.0543 (10 µM) and -0.123 (50 µM).

Regarding “MGAT2_Q10469_386_TCRPSTQSAQIESLLNNNK (UniProt Q10469)”, the “probe-labelled cysteine peptide fold change” value (10 µM) is -0.0338 and the “probe-labelled cysteine peptide fold change” value (50 µM) is 0.00591.

As to “MED14_O60244_635_AGEMCAFNK (UniProt O60244)”, the “probe-labelled cysteine peptide fold change” value reads like this: (10 µM) -0.0268; (50 µM) -0.0566.

“MCCC1_Q96RQ3_190_SIMAAAGVPVVEGYHGEDQSDQCLK (UniProt Q96RQ3)”: the “probe-labelled cysteine peptide fold change” value is -0.00871 (10 µM) and -0.0916 (50 µM).

Consider “ME1_P48163_110_FMPIVYTPTVGLACQQYSLVFR (UniProt P48163)”, for which the “probe-labelled cysteine peptide fold change” value by setting is: (10 µM) -0.087; (50 µM) 0.158.

“MDH2_P40926_212_TIIPLISQCTPK (UniProt P40926)”: the “probe-labelled cysteine peptide fold change” value is, setting by setting: (10 µM) -0.0535; (50 µM) -0.102.

In the case of “MCM10_Q7L590_329_DLTQCVSLFLFGEVHK (UniProt Q7L590)”, the “probe-labelled cysteine peptide fold change” value was determined as 0.263 (10 µM) and 0.179 (50 µM).

Regarding “MCU_Q8NE86_97_CQFTLKPISDSVGVFLR (UniProt Q8NE86)”, the “probe-labelled cysteine peptide fold change” value is -0.212 (10 µM) and -0.196 (50 µM).

“MCM3AP_O60318_439_SESTDSLGGLSPSEVTAIQCK (UniProt O60318)”: the “probe-labelled cysteine peptide fold change” value reads like this: (10 µM) -0.0427; (50 µM) -0.262.

Consider “MCM5_P33992_355_AIACLLFGGSRK (UniProt P33992)”, for which the “probe-labelled cysteine peptide fold change” value is, setting by setting: (10 µM) -0.506; (50 µM) -0.414.

Consider “MED6_O75586_45_TCNNEVVK (UniProt O75586)”, for which the “probe-labelled cysteine peptide fold change” value reads like this: (10 µM) -0.032; (50 µM) -0.0585.

With “MFSD2A_Q8NA29_531_ALQALRDEASSSGCSETDSTELASIL (UniProt Q8NA29)”, the “probe-labelled cysteine peptide fold change” value (10 µM) is -0.143 and the “probe-labelled cysteine peptide fold change” value (50 µM) was -0.539.

Consider “MEGF8_Q7Z7M0_930_KGDAACSR (UniProt Q7Z7M0)”, for which the “probe-labelled cysteine peptide fold change” value (10 µM) came out at 0.023 and the “probe-labelled cysteine peptide fold change” value (50 µM) amounted to 0.311.

For “MCM3_P25205_126_TLTSCFLSCVVCVEGIVTK (UniProt P25205)”, the “probe-labelled cysteine peptide fold change” value (10 µM) was -0.199 and the “probe-labelled cysteine peptide fold change” value (50 µM) is -0.161.

On to “MED14_O60244_729_TWVAELVFANCPLNGTSTR (UniProt O60244)”, for which the “probe-labelled cysteine peptide fold change” value was -0.376 (10 µM) and -0.228 (50 µM).

“MCM4_P33991_509_AEINILLCGDPGTSK (UniProt P33991)”: the “probe-labelled cysteine peptide fold change” value (10 µM) was -0.0724 and the “probe-labelled cysteine peptide fold change” value (50 µM) was 0.0734.

As to “MCM3_P25205_263_TVLIACNVK (UniProt P25205)”, the “probe-labelled cysteine peptide fold change” value is, setting by setting: (10 µM) -0.0626; (50 µM) 0.0397.

Turning to “MGAT2_Q10469_440_NGGWGDIRDHELCK (UniProt Q10469)”, the “probe-labelled cysteine peptide fold change” value (10 µM) came to 0.00136 and the “probe-labelled cysteine peptide fold change” value (50 µM) is 0.0381.

The values above are taken from the supplement of paper PMC12067093, “Discovery and optimisation of a covalent ligand for TRIM25 and its application to targeted protein ubiquitination” (Chemical Science, 2025).
